Assay results as given in the supplement of paper PMC12889115.
Some of the results follow. These are raw signals, not scaled to a control.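 First-pass screen: polymyxin B was added at a level that permeabilizes the Salmonella outer membrane while sparing the inner membrane. DMSO wells, with and without polymyxin B, defined maximum growth. Because plates differed from one another, each plate's data were ranked separately and the compounds with the lowest OD600 were carried forward as hits.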

System: Salmonella enterica serovar Typhimurium SL1344
Test: bacterial growth OD600 after 18 h with compound and polymyxin B; higher = more bacterial growth (less inhibition)
Settings: 50 µM, Mueller-Hinton broth

SMILES | bacterial growth OD600 (polymyxin B 1 µg/mL) | bacterial growth OD600 (polymyxin B 0.75 µg/mL)
CCOC(=O)c1n[nH]cc1CN1CCCC(Cc2ccccc2)(C(=O)OCC)C1 (centres undefined) | 0.922 | –
COC(=O)[C@@H]1CCCN1C(=O)c1ccc(OC2CCN(Cc3ccccn3)CC2)cc1 | – | 0.952
CC(C)c1cc(C(=O)N2CCc3onc(-c4ccccc4F)c3C2)nc(N)n1 | – | 0.664
O=C(NCc1cccnc1)C1CCN(C2CCN(C/C=C/c3ccccc3)CC2)CC1 | 0.884 | –
Cc1ccc(-n2cccn2)c(CNC2COc3ccccc3C2)c1 (centres undefined) | 1.1 | –
O=C(C1CCCC1)N1CCC(C2CCN(Cc3ccc(Cl)cc3)C2)CC1 (centres undefined) | – | 0.69
O=C(NCC1CCCN(Cc2nc(-c3ccccc3)cs2)C1)c1ccc2c(c1)OCO2 (centres undefined) | 0.805 | –
CCN1CCN(C2(C(=O)NCCC3CCCN3C)Cc3ccccc3C2)CC1 (centres undefined) | – | 0.789
CN(C(=O)c1cccc(N2CCNC2=O)c1)C1CCCN(CCc2ccccc2)C1 (centres undefined) | 1.23 | –
